Results are given in words; binding and its absence hold for the method and conditions named. Binding seen in cells or lysates may run through a third protein. A result given as binding can be weak or reduced; the word gives no strength. Values belong to the molecule of their own block, whether it stands above or below them.
Experiments:
[1] = molecular target: T1, MOV10, helicase and RNA-binding protein (rat) (rat (endogenous in hippocampus and in cultured hippocampal neurons)) (UniProt D3ZUC2); test: co-IP; MOV10 antibody (5 ug) or rabbit IgG with protein G-agarose on post-mitochondrial supernatant of adult SD rat hippocampi; lysis in 50 mM Tris pH 7.5, 150 mM NaCl, 1% NP-40, 2 mM EDTA with RNase inhibitor; washes with 150 and 300 mM NaCl; 4°C; western blot
T1 sequence: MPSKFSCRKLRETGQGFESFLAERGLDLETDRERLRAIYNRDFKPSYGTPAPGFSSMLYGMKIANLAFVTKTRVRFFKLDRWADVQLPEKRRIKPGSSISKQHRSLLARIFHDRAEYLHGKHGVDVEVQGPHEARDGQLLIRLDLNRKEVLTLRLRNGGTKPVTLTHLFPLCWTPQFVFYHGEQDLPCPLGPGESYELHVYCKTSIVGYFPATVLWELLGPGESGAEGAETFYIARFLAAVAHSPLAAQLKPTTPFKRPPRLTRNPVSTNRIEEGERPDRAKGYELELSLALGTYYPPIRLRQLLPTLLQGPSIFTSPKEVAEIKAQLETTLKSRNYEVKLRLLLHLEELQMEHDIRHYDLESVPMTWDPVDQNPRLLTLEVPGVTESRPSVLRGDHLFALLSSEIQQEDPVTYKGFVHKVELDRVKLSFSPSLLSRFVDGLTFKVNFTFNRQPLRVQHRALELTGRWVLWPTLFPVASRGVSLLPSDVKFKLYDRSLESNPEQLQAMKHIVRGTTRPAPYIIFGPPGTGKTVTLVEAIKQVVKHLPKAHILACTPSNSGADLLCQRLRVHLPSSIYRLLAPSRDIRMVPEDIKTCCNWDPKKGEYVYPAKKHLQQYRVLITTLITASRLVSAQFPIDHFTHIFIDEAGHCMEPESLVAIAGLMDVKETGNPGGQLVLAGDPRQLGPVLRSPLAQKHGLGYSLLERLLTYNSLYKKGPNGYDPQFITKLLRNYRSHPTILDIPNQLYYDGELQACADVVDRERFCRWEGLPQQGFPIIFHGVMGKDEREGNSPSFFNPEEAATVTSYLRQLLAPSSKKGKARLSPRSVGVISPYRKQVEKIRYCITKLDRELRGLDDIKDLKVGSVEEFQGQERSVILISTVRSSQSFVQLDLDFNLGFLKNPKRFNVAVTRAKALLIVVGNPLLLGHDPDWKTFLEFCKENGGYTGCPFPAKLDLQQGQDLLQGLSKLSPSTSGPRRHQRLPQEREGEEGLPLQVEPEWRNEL

[2] = molecular target: Argonaute (Ago) (rat) (rat (endogenous in hippocampus and in cultured hippocampal neurons)); test: co-IP; pan-Ago antibody with protein G-agarose on lysates of cultured rat hippocampal neurons treated with bicuculline (10 uM) or vehicle for 24 hours; 20 mM Tris-HCl, 200 mM NaCl, 2.5 mM MgCl2, 1% NP-40, RNase inhibitor; 4°C; western blot

- binding [1]: binds
Molecule: Argonaute (Ago) (rat)

- binding [2]: binds
B1: MOV10, helicase and RNA-binding protein (rat) (protein, UniProt D3ZUC2 1-1004)
chain: T1 sequence

- binding [2]: binds
B2: Trim32, E3 ligase (rat) (protein, UniProt Q66H79 1-655)
chain: MAAAAAASHLNLDALREVLECPICMESFTEEQLRPKLLHCGHTICRQCLEKLLASSINGVRCPFCSKITRITSLTQLTDNLTVLKIIDTAGLSEAVGLLMCRACGRRLPRQFCRSCGLVLCEPCREADHQPPGHCTLPVKEAAEERRRDFGEKLTRLRELTGELQRRKAALEGVSRDLQARYKAVLQEYGHEERRVQEELARSRKFFTGSLAEVEKSNSQVVEEQSYLLNIAEVQAVSRCDYFLAKIKQADVALLEETADEEEPELTASLPRELTLQDVELLKVGHVGPLQIGQAVKKPRTVNMEDSWAVEEGAASSASASVTFREMDMSPEEVVPSPRASPAKQRSSEAASSIQQCLFLKKMGAKGSTPGMFNLPVSLYVTSQSEVLVADRGNYRIQVFNRKGFLKEIRRSPSGIDSFVLSFLGADLPNLTPLSVAMNCHGLIGVTDSYDNSLKVYTLDGHCVACHRSQLSKPWGITALPSGQFVVTDVEGGKLWCFTVDRGAGVVKYSCLCSAVRPKFVTCDAEGTVYFTQGLGLNVENRQNEHHLEGGFSIGSVGPDGQLGRQISHFFSENEDFRCIAGMCVDARGDLIVADSSRKEILHFPKGGGYSVLIREGLTCPVGIALTPKGQLLVLDCWDHCVKIYSYHLRRYSTP

Reference: article PMC8610276
